Results reported in the supplement of paper PMC6411743.
± gives the standard deviation of the averaged measurements. The list shows a part of the results.

Chains of the proteins cited; added tags and fusions are not shown. Lines headed by an entry give the natural chain unless they say otherwise; changes in a name come on top.
UniProt O14981: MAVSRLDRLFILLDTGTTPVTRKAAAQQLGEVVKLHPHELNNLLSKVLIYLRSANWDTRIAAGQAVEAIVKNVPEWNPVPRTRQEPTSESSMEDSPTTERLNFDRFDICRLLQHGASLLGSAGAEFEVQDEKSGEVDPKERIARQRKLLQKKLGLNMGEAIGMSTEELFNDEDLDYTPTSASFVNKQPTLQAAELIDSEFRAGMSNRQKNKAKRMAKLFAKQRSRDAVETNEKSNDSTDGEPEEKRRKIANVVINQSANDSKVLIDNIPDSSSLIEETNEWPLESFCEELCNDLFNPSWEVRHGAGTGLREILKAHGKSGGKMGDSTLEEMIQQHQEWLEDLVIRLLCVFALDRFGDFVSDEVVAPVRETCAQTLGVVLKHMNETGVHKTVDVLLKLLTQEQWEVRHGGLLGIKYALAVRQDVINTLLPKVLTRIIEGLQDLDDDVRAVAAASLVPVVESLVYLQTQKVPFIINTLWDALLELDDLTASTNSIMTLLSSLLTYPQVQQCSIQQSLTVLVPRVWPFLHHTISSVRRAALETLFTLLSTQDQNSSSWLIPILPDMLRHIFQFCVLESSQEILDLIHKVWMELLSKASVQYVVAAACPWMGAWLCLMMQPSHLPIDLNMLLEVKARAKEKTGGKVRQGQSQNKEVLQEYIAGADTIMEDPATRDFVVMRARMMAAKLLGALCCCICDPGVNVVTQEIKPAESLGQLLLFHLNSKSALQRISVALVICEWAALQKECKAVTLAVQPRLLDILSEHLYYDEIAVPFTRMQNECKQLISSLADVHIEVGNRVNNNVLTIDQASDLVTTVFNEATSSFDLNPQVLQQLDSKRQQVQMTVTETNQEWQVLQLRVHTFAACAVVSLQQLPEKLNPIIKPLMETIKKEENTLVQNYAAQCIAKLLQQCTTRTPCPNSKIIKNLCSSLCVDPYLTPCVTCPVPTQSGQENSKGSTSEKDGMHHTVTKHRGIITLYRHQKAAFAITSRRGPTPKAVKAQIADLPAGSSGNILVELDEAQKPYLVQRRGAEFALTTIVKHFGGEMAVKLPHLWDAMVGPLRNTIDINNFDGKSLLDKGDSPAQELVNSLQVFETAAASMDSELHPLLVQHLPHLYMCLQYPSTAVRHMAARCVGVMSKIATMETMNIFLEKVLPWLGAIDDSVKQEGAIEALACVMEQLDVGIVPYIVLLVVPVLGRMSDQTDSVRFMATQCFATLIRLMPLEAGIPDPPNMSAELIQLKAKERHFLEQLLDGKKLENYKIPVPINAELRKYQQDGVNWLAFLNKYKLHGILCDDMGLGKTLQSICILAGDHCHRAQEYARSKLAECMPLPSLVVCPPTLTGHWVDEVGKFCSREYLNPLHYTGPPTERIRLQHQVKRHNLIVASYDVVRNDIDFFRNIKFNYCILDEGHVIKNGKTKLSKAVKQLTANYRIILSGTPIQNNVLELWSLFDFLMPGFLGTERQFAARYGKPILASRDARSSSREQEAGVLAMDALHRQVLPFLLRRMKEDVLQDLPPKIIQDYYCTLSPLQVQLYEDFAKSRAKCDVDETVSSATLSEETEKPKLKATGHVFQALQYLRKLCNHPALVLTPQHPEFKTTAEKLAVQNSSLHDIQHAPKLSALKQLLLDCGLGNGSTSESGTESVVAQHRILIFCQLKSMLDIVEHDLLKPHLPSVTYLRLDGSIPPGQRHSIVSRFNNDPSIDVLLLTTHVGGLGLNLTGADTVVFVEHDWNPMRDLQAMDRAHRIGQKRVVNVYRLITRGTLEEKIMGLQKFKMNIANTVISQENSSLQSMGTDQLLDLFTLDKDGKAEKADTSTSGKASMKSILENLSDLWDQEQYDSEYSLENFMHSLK
UniProt Q9H3P2, whole entry: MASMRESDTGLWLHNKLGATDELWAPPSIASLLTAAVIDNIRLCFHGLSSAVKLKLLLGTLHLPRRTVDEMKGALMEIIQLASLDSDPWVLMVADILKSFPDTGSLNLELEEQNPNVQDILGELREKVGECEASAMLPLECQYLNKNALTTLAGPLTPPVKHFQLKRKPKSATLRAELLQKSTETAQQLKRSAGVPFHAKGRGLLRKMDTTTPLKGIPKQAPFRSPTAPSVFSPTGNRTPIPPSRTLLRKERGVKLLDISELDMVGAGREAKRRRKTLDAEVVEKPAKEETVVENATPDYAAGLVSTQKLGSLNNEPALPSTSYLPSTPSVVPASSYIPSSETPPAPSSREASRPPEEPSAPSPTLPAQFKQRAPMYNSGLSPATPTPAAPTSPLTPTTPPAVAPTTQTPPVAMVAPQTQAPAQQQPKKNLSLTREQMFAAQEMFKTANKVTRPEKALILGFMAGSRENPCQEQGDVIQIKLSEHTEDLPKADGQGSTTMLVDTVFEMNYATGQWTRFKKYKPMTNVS
UniProt Q8N8S7: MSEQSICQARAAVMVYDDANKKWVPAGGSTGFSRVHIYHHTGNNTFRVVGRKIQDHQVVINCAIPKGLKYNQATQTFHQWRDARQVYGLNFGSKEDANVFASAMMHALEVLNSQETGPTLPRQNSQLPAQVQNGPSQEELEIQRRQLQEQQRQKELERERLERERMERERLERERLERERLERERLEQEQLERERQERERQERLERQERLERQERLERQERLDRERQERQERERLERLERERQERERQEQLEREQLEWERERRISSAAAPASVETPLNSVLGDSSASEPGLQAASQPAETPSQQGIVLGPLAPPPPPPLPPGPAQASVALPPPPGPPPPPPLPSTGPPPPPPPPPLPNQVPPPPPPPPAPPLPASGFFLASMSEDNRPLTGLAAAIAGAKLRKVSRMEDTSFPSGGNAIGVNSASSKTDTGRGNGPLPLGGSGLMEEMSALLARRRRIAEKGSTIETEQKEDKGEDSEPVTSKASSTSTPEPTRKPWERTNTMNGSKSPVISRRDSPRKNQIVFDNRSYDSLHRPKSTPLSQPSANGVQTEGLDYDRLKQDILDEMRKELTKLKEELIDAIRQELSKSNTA
UniProt A6NC98: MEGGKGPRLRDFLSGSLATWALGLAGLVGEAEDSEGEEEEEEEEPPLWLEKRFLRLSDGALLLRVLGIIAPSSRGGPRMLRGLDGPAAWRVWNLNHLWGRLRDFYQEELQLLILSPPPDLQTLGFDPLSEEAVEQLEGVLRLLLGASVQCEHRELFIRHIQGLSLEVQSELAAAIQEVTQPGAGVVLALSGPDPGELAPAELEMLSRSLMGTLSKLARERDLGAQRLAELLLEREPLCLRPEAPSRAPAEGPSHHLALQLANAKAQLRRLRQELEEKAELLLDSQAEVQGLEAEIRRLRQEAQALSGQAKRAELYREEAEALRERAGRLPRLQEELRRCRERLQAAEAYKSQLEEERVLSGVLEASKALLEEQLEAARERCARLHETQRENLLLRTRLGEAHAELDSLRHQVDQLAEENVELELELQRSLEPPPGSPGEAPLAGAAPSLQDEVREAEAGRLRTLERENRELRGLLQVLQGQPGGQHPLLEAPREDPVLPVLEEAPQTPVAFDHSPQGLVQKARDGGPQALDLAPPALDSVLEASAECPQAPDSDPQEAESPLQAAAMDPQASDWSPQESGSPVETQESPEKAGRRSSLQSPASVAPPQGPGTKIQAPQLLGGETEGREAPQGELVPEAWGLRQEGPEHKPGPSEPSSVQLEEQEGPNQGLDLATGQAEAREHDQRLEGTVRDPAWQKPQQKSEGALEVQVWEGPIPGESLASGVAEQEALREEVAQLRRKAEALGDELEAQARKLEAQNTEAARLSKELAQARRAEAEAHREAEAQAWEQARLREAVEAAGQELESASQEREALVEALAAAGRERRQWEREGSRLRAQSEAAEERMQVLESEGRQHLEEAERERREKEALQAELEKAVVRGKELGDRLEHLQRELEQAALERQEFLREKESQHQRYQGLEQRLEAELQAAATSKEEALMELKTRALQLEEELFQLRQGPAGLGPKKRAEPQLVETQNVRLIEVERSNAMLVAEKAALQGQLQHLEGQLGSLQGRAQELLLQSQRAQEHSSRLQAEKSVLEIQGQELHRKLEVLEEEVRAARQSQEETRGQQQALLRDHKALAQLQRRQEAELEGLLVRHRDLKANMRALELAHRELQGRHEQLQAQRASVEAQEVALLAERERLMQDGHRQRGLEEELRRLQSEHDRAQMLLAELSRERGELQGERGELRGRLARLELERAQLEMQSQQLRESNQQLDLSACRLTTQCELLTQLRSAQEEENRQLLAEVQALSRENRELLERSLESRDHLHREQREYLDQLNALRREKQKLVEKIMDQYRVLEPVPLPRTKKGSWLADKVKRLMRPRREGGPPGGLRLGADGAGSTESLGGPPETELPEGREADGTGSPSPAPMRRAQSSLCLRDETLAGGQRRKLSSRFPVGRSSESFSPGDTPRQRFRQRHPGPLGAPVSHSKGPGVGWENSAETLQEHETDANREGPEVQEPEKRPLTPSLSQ
UniProt Q13617, whole entry: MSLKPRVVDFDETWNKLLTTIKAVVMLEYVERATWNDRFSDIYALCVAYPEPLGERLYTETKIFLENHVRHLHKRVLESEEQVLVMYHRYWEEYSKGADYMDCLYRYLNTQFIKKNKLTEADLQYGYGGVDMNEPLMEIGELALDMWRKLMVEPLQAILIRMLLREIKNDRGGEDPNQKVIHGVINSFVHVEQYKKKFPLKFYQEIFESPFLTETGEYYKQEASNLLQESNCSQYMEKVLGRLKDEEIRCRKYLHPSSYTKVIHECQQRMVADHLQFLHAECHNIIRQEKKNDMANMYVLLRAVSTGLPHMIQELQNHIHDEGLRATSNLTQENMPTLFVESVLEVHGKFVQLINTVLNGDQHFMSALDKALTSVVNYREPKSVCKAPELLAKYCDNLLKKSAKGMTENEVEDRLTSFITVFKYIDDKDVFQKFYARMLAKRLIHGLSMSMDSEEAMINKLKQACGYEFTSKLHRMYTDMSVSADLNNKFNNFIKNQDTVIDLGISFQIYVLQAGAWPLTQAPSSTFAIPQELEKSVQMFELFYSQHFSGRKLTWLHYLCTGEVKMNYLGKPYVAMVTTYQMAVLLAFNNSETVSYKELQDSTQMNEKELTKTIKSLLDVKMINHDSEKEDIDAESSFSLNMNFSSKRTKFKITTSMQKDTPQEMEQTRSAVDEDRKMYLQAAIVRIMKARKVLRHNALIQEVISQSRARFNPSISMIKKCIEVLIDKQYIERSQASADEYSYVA

Compound: Nc1nc2c(ncn2[C@@H]2O[C@H](COP(=O)(O)OP(=O)(O)OP(=O)(O)O)[C@@H](O)[C@H]2O)c(=O)[nH]1 [guanosine triphosphate]
Test: NP40-soluble protein abundance relative to vehicle (solubility fold change) (ratio); higher = more soluble protein in presence of GTP
Protocol: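 Solubility proteome profiling in Jurkat crude lysate. Lysate was treated with Mg-GTP (0.1-10 mM) for 10 min at room temperature and 3 min at 37 °C, then solubilised with 0.8% NP40 and benzonase, followed by ultracentrifugation. Proteins were quantified by TMT10 LC-MS/MS; the value is the NP40-soluble abundance relative to the NP40-processed vehicle, from 3 independent experiments.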

Target	NP40-soluble protein abundance (concentration: 0.1mM)	NP40-soluble protein abundance (concentration: 0.5mM)	NP40-soluble protein abundance (concentration: 1mM)	NP40-soluble protein abundance (concentration: 2mM)	NP40-soluble protein abundance (concentration: 4mM)	NP40-soluble protein abundance (concentration: 6mM)	NP40-soluble protein abundance (concentration: 8mM)	NP40-soluble protein abundance (concentration: 10mM)
A0A0A0MTH9|O14981 (UniProt O14981)	1.01 ± 0.039	1.01 ± 0.04	0.96 ± 0.025	0.985 ± 0.021	0.984 ± 0.027	0.9311 ± 0.005	0.97 ± 0.024	0.935 ± 0.015
A0A0C4DFX9|Q9H3P2 (UniProt Q9H3P2)	0.913 ± 0.032	0.922 ± 0.033	0.989 ± 0.04	0.948 ± 0.055	0.952 ± 0.057	0.974 ± 0.059	0.988 ± 0.035	0.995 ± 0.038
A0A0U1RRM6|Q8N8S7 and related entries (UniProt Q8N8S7)	1.14 ± 0.12	1.08 ± 0.12	1.13 ± 0.094	1.05 ± 0.22	1.04 ± 0.058	0.995 ± 0.13	1.01 ± 0.11	1.01 ± 0.12
CCDC88B (UniProt A6NC98)	1.02 ± 0.067	0.974 ± 0.059	1.02 ± 0.066	1 ± 0.036	0.948 ± 0.035	0.958 ± 0.034	1 ± 0.075	0.959 ± 0.067
A0A0A0MTN0|Q13617 and related entries (UniProt Q13617)	1.05 ± 0.091	1.05 ± 0.11	0.946 ± 0.079	0.948 ± 0.12	0.931 ± 0.098	0.94 ± 0.096	0.915 ± 0.054	0.838 ± 0.11
